{"source": "PubChem BioAssay AID686943 (Drosophila RNAi Screening Center, 2013)", "test": "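Fly genes whose loss alters ERK activation after insulin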 (primary screen)", "cells": "Drosophila S2R+ haemocyte-like cells expressing YFP-tagged ERK (Rolled)", "reagents": "long dsRNA against Drosophila genes", "treatment": "insulin stimulation versus unstimulated cells; dose and duration not given", "detection": "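Antibody staining for doubly phosphorylated ERK divided by ERK-YFP signal, as plate z-scores, in insulin-treated and untreated cells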", "scale": "replicate 1, z-score of dpERK with insulin: higher = more active ERK per ERK-YFP after insulin", "note": "In all, the deposit lists about 23,000 reagents; below is a random part of those with a known target gene and a result. 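Extra replicates exist only for a retested subset of genes; insulin dose and duration not given; both raised and lowered dpERK matter.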 The numbers tell different reagents against one gene apart. Further read-outs or replicates are left out here. Not given: the amount of reagent, the time to read-out."}
{"target": "Zasp66", "reagent no.": 1, "replicate 1, z-score of dpERK with insulin": -0.54}
{"target": "Zasp66", "reagent no.": 2, "replicate 1, z-score of dpERK with insulin": 0.1}
{"target": "Zasp66", "reagent no.": 3, "replicate 1, z-score of dpERK with insulin": 0.84}
{"target": "CG42853", "reagent no.": 1, "replicate 1, z-score of dpERK with insulin": 1.06}
{"target": "abs", "reagent no.": 1, "replicate 1, z-score of dpERK with insulin": 1.43}
{"target": "Art4", "reagent no.": 1, "replicate 1, z-score of dpERK with insulin": 1.72}
{"target": "CG4793", "reagent no.": 1, "replicate 1, z-score of dpERK with insulin": 0.68}
{"target": "CG11374", "reagent no.": 1, "replicate 1, z-score of dpERK with insulin": 0.2}
{"target": "Nepl10", "reagent no.": 1, "replicate 1, z-score of dpERK with insulin": -0.36}
{"target": "CG10126", "reagent no.": 1, "replicate 1, z-score of dpERK with insulin": -0.72}
{"target": "RhoGDI", "reagent no.": 1, "replicate 1, z-score of dpERK with insulin": 0.32}
{"target": "CG7785", "reagent no.": 1, "replicate 1, z-score of dpERK with insulin": 0.38}

As entered above:
Value of Zasp66 #3 under “replicate 1, z-score of dpERK with insulin”: 0.84
Zasp66 #2, replicate 1, z-score of dpERK with insulin = 0.1
